The test system of this test is HEK293A TEAD-LUC reporter. Nature of the test: TEAD-luciferase reporter activity (YAP activation), robust Z score vs plate; higher = stronger YAP/TEAD activation. To be noted: 24 h.

Structures can show the parent of a compound that is named as a salt. The list shows a part of the results. This data set is noisy: repeats of one test often differ as much as different tests do.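 In a drug-repurposing library screen, luminescence reads luciferase driven by eight TEAD-binding elements, stably integrated into human kidney-derived cells. Compounds scoring over five robust Z scores above the plate mean are called hits.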

As for `Cc1nc(-c2ccc(Cl)cc2)sc1C(=O)N[C@H]1CCCN(c2cccc(C(=O)O)c2)C1`, the TEAD-luciferase reporter activity by setting is: (compound concentration: 200 nM) inactive: 0.0635; (compound concentration: 2 uM) inactive: 0.0719; (compound concentration: 10 uM) inactive: -0.805.

`Cc1ccc(S(=O)(=O)NC(=O)NC(C)(C)Cc2ccccc2)cc1` [analog of TOSIFEN]: the TEAD-luciferase reporter activity (compound concentration: 200 nM) is inactive: -2.16, the TEAD-luciferase reporter activity (compound concentration: 2 uM) is inactive: -0.138 and the TEAD-luciferase reporter activity (compound concentration: 10 uM) is inactive: -0.226.

Consider `COc1c(Cc2c[nH]c3ccccc23)[nH]c(=O)c(CC(C)C)[n+]1[O-]`, for which the TEAD-luciferase reporter activity is active: 5.66 (compound concentration: 200 nM), inactive: 0.0989 (compound concentration: 2 uM) and inactive: 0.688 (compound concentration: 10 uM).

Consider `CC(=O)Oc1cccc2c1C(=O)c1c(OC(C)=O)cc(C(=O)O)cc1C2=O` [diacerein (capsule), TWi Pharmaceuticals], for which the TEAD-luciferase reporter activity (compound concentration: 200 nM) is inactive: -2.48 and the TEAD-luciferase reporter activity (compound concentration: 10 uM) is inactive: 1.51.

For `CC(=O)Oc1cccc2c1C(=O)c1c(OC(C)=O)cc(C(=O)O)cc1C2=O` [diacerein (capsule)], the TEAD-luciferase reporter activity (compound concentration: 2 uM) is inactive: -1.38.

For `C[N@+]12CCCC[C@@H]1CCC(=C(c1cccs1)c1cccs1)C2` [tiquizium bromide], the TEAD-luciferase reporter activity by setting is: (compound concentration: 200 nM) inactive: 0.154; (compound concentration: 2 uM) inactive: -1.35; (compound concentration: 10 uM) inactive: -0.906.

Take `Cc1c(NC(=O)C(C)N(C)C)c(=O)n(-c2ccccc2)n1C` (stereo unspecified): the TEAD-luciferase reporter activity (compound concentration: 200 nM) was inactive: 0.588, the TEAD-luciferase reporter activity (compound concentration: 2 uM) is inactive: -1.85 and the TEAD-luciferase reporter activity (compound concentration: 10 uM) is inactive: 1.49.

Take `C=C1C[C@H]2[C@@H]3C=C(C)C4=CC(=O)CC[C@]4(C)[C@H]3CC[C@]2(C)[C@@]1(OC(C)=O)C(C)=O` [Melengestrol acetate]: the TEAD-luciferase reporter activity was inactive: 1.35 (compound concentration: 200 nM), inactive: -0.727 (compound concentration: 2 uM) and inactive: 1.19 (compound concentration: 10 uM).

With `CN[C@@H](C)C(=O)N[C@H]1CN(C(=O)CC(C)C)CC[C@H]2CC[C@@H](C(=O)NC(c3ccccc3)c3ccccc3)N2C1=O`, the TEAD-luciferase reporter activity runs as follows: (compound concentration: 200 nM) inactive: 0.878; (compound concentration: 2 uM) inactive: 1.53; (compound concentration: 10 uM) inactive: 2.02.

Take `O=C(O)CCCC(=O)N1Cc2ccccc2CC2(CCCCN2CCc2ccccc2)C1` (stereo unspecified): the TEAD-luciferase reporter activity was inactive: -3.48 (compound concentration: 200 nM) and inactive: 2.3 (compound concentration: 10 uM).

Consider `CCCCN(CCCC)CC(O)c1cc(-c2ccc(C(F)(F)F)cc2)nc(-c2ccc(C(F)(F)F)cc2)c1` (stereo unspecified), for which the TEAD-luciferase reporter activity reads like this: (compound concentration: 200 nM) inactive: -0.583; (compound concentration: 2 uM) inactive: -2.04; (compound concentration: 10 uM) inactive: 0.298.

As to `C#C[C@H]1CCC2C3CCC4=CC(=O)CC[C@]4(C)C3CC[C@@]21C` (stereo partly specified), the TEAD-luciferase reporter activity is inactive: -1.2 (compound concentration: 200 nM), inactive: -0.73 (compound concentration: 2 uM) and inactive: -0.784 (compound concentration: 10 uM).

Consider `Cc1cccc(Cl)c1NC(=O)Nc1ccncc1`, for which the TEAD-luciferase reporter activity (compound concentration: 200 nM) is inactive: -0.918, the TEAD-luciferase reporter activity (compound concentration: 2 uM) was inactive: 0.324 and the TEAD-luciferase reporter activity (compound concentration: 10 uM) is inactive: 3.13.

Consider `CC(=O)NCC(=O)N1Cc2ccccc2CC2(CCCN2C)C1` (stereo unspecified), for which the TEAD-luciferase reporter activity is inactive: -0.54 (compound concentration: 200 nM) and inactive: 0.825 (compound concentration: 10 uM).

For `CC(C)(F)C[C@H](N[C@@H](c1ccc(-c2ccc(S(C)(=O)=O)cc2)cc1)C(F)(F)F)C(=O)NC1(C#N)CC1` [odanacatib], the TEAD-luciferase reporter activity is inactive: 0.0582 (compound concentration: 200 nM), inactive: -2.66 (compound concentration: 2 uM) and inactive: 0.519 (compound concentration: 10 uM).

With `CCCCCCCCN1CCc2c(C)c(CC(=O)O)c(C)c(NC(=O)C(C)(C)C)c21`, the TEAD-luciferase reporter activity runs as follows: (compound concentration: 200 nM) inactive: -0.897; (compound concentration: 2 uM) inactive: -0.963; (compound concentration: 10 uM) inactive: -0.0468.

`Fc1ccc(CSSSCc2ccc(F)cc2)cc1` [Fluorapacin]: the TEAD-luciferase reporter activity reads like this: (compound concentration: 200 nM) inactive: -0.368; (compound concentration: 2 uM) inactive: -0.339; (compound concentration: 10 uM) inactive: 2.49.

For `Nc1nc2ncc(CNc3ccc(C(=O)NC(CCC(=O)O)C(=O)O)cc3)nc2c(=O)[nH]1` (stereo unspecified) [Folic acid], for the setting “compound concentration: 2 uM”, the TEAD-luciferase reporter activity was inactive: 0.0551.

As to `Nc1nc2ncc(CNc3ccc(C(=O)NC(CCC(=O)O)C(=O)O)cc3)nc2c(=O)[nH]1` (stereo unspecified), the TEAD-luciferase reporter activity is inactive: -0.108 (compound concentration: 200 nM) and inactive: 3.17 (compound concentration: 10 uM).

On to `O=C(c1ccccc1Cl)N1CCC(C(=O)N2CCC(N3CCCC3=O)CC2)CC1`, for which the TEAD-luciferase reporter activity by setting is: (compound concentration: 200 nM) inactive: -1.26; (compound concentration: 10 uM) inactive: 0.364.

Take `O=c1[nH]c([C@@H]2CCCN2)nc2c1oc1ccc(Cl)cc12` [XL413 (hydrochloride)]: the TEAD-luciferase reporter activity (compound concentration: 200 nM) was inactive: -1.74, the TEAD-luciferase reporter activity (compound concentration: 2 uM) is inactive: -1.64 and the TEAD-luciferase reporter activity (compound concentration: 10 uM) is inactive: -1.12.

In the case of `CCOC(=O)Nc1c[n+](N2CCOCC2)no1` [molsidomine], the TEAD-luciferase reporter activity runs as follows: (compound concentration: 200 nM) inactive: 2.52; (compound concentration: 2 uM) inactive: -0.988; (compound concentration: 10 uM) inactive: -1.82.

`CCCCC/C=C/C/C=C/CCCCCCCC(=O)NC(C)c1ccccc1` (stereo unspecified): the TEAD-luciferase reporter activity reads like this: (compound concentration: 200 nM) inactive: -1.76; (compound concentration: 2 uM) inactive: -0.83; (compound concentration: 10 uM) inactive: -0.544.

As to `CN(C)CCc1c[nH]c2ccc(Cn3cncn3)cc12`, the TEAD-luciferase reporter activity is, setting by setting: (compound concentration: 200 nM) inactive: -0.806; (compound concentration: 10 uM) inactive: -1.19.

Regarding `CN(C)CCc1c[nH]c2ccc(Cn3cncn3)cc12` [rizatriptan wafer], under “compound concentration: 2 uM”, the TEAD-luciferase reporter activity was inactive: -0.0266.

Turning to `C=C1Nc2ccccc2C(=O)N1c1ccccc1CC`, the TEAD-luciferase reporter activity reads like this: (compound concentration: 200 nM) inactive: -0.573; (compound concentration: 2 uM) inactive: -0.798; (compound concentration: 10 uM) inactive: 0.838.

Take `O=S1(=O)CCN(Cc2cc(NCC3CCOCC3)c3[nH]c(-c4ccccc4)cc3c2)CC1` [Necrosis Inhibitor-5]: the TEAD-luciferase reporter activity is, setting by setting: (compound concentration: 200 nM) inactive: 1.15; (compound concentration: 10 uM) inactive: -1.32.

Take `O=S1(=O)CCN(Cc2cc(NCC3CCOCC3)c3[nH]c(-c4ccccc4)cc3c2)CC1` [NecroX-5]: for the setting “compound concentration: 2 uM”, the TEAD-luciferase reporter activity is inactive: -1.05.

As for `NCC(=O)N1CCCC2(Cc3ccccc3CN2C(=O)C2CCCC2)C1` (stereo unspecified), the TEAD-luciferase reporter activity by setting is: (compound concentration: 200 nM) inactive: -0.445; (compound concentration: 10 uM) inactive: -0.921.

For `c1ccc(Cn2cc(CCc3ccncc3)c3ccccc32)cc1` [Benzindopyrine], the TEAD-luciferase reporter activity by setting is: (compound concentration: 200 nM) inactive: -1.19; (compound concentration: 2 uM) inactive: 0.799.

For the compound `COC(=O)N1CC[C@@H]2[C@H]1CCC[C@@]2(O)C#Cc1cccc(C)c1` [Mavoglurant], the TEAD-luciferase reporter activity (compound concentration: 200 nM) is inactive: -0.844, the TEAD-luciferase reporter activity (compound concentration: 2 uM) was inactive: -1.85 and the TEAD-luciferase reporter activity (compound concentration: 10 uM) is inactive: -0.538.

The values above are taken from the supplement of paper PMC10735217.
